# Out of some 330,000 compounds screened, about 100 (0.03%) were called active. The source calls these results inconclusive, neither active nor inactive. The call rests on the fitted dose curve; in most records, active means well fitted inhibition curve with a large enough effect; inconclusive means small, poorly fitted or top-dose-only effect; inactive means flat fitted curve, though single readings scatter. Some salts and complexes are drawn in separate pieces, as the source files them; their charges need not balance.
# System: Chaperonin Mm-Cpn (Methanococcus maripaludis)
# Experiment: Inhibitors of TCP-1 ring complex (TRiC) of Methanococcus maripaludis (MmCpn): qHTS;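 further: enzyme at 25 nM with ATP substrate at 10 µM during the reaction; nearly all actives have a fitted effect of over 80% in size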
# Details: purified Mm-Cpn ATPase, ADP Transcreener TR-FRET
# Excerpt: The eukaryotic chaperonin TRiC (for TCP-1 ring complex) is an essential and conserved chaperone required for the folding and activation of 10-15% of the proteins encoded by the human genome. […] The TRiC complex consist of two stacked 7-9 membered rings, each containing a central cavity. Substrates are folded within the cavity in an ATP-dependent manner. TRiC is a complex of eight different, essential proteins. As each of the genes encoding the eight subunits is essential for cell viability and no protocol has been developed to over-express this enzyme to high levels. […] This assay applied the time resolved fluorescence resonance energy transfer (TR-FRET) principle. […]
# Purified Mm-CPN was supplied by the laboratory of Dr. Judith Frydman. […] Plates were read on the PerkinElmer EnVision plate reader using Excitation = 320 nm and Emission = […], 665 nm. Protocol- 1.Dispense 1.5ul per well of working [Mm-CPN] = 50nM (or 75 ng / well) 2.Spin plate at 1000 rpm for 30 seconds 3.23nl of compound transferred per well 4.Incubate at 37degC for 10 minutes 5.Dispense 1.5ul per well of working [ATP] = 20uM 6.Incubate at 37degC for 30 minutes 7.Dispense 3ul per well of Anti-ADP Cryptate / ADP-d2 mix (prepared as instructed by Cisbio) 8.Incubate at ambient for 30 minutes 9.Read using EnVision
# Potency means the concentration at half of the fitted maximal effect.
row,SMILES,Potency
1,COc1ccc2c(c1O)-c1c(O)c(OC)cc3c1[C@H](C2)[N+](C)(C)CC3.O=[N+]([O-])c1cc([N+](=O)[O-])c([O-])c([N+](=O)[O-])c1[O-],inconclusive: 22.4 µM

# Reference: PubChem BioAssay AID504842 (National Center for Advancing Translational Sciences (NCATS), 2011)
